From PubChem BioAssay AID540256 (National Center for Advancing Translational Sciences (NCATS), 2011)
The whole screen tested about 300,000 compounds, of which about 3,700 (1.2%) were called active. This list was built around the results that the source calls inconclusive (neither active nor inactive); the mix of calls is not that of the screen. The call rests on the fitted dose curve; tested in HEK293 cells. Potencies beside an inconclusive call are fits to weak or partial responses and may not hold up.
On the % scale 0 is the no-effect control and ±100 the full control effect; potency means the concentration at half of the fitted maximal effect.

Experiment: qHTS for Inhibitors of binding or entry into cells for Lassa Virus; further: nearly all actives have a fitted effect of over 50% in size
Details: Lassa virus pseudotype entry inhibition, cell reporter; activity change, negative = inhibition: at 37.9 µM (top of the series) unless noted
In the case of `CCCCC(=O)NNC(=S)NC(=O)C(c1ccccc1)c1ccccc1`, the Potency is reported as inconclusive: 20 µM [inhibitor, single point].
For `CC(=O)c1cccc(NC(=S)NC(=O)c2ccc(C)cc2)c1`, the Potency was inconclusive: 10 µM [inhibitor, partial curve, poor fit].
For `O=C(N/N=C/c1ccc(O)cc1)c1[nH]c2ccc(Br)cc2c1-c1ccccc1`, the Potency was inconclusive: 2.59 µM [inhibitor, partial curve].
In the case of `CC1(C)CC(=O)C([N+](=O)[O-])=C(NCCCC(=O)O)C1`, the “activity change, negative = inhibition” value is reported as inactive: 3.62%.
With `CCCCCCC(C)(C)c1ccc([C@@H]2C[C@H](O)CC[C@H]2CCCO)c(O)c1` the Potency was inconclusive: 23.1 µM [inhibitor, partial curve].
For `Cc1ccc(NC(=O)CN(C)C(=O)Cc2ccccc2F)cc1`, the “activity change, negative = inhibition” value was inactive: -8.97% [at 46.1 µM].
For `COc1ccc(-c2noc(CCC(=O)NC3CCCC3)n2)cc1`, the “activity change, negative = inhibition” value was inactive: -7.8% [at 46.1 µM].
For `Cn1c(CNC(=O)c2ccco2)nnc1SCC(=O)N1CCN(c2ccccc2F)CC1`, the “activity change, negative = inhibition” value was inactive: 22.8% [at 46.1 µM].
In the case of `CCOc1ccccc1C(=O)Nc1cc(-c2ccc(C)cc2)no1`, the “activity change, negative = inhibition” value is reported as inactive: 25.2% [at 46.1 µM].
For `O=C(/C=C/c1cccc(F)c1)Nc1nccs1`, the “activity change, negative = inhibition” value was inactive: -3.69%.
For `COc1ccc(Cl)cc1NC(=O)CN(C)C(=O)c1cc(-c2cccs2)nn1-c1ccccc1`, the Potency was inconclusive: 35.5 µM [inhibitor, single point].
For `COC(=O)[C@@]1(Cc2ccc(F)cc2)[C@H]2c3cc(C(=O)N(C)C)n(Cc4ccccn4)c3C[C@H]2CN1C(=O)c1ccccc1`, the Potency was inconclusive: 23.1 µM [inhibitor, single point].
With `CCC(CO)NCc1ccc(OCC(=O)Nc2cccc(C(F)(F)F)c2)c(OC)c1` (stereo unspecified) the Potency was inconclusive: 12.6 µM [inhibitor, partial curve, poor fit].
With `COCc1cc(C)nc(OCC(=O)N/N=C/c2cc(C)n(-c3c(C)cccc3C)c2C)c1C#N` the Potency was inconclusive: 17.8 µM [inhibitor, partial curve, poor fit].
With `CCOc1cccc(-c2nn(-c3ccccc3)cc2/C=C(/C#N)C(=O)NCCCn2ccnc2)c1` the Potency was inconclusive: 29.1 µM [inhibitor, single point].
For `COC(=O)c1ccc(Cn2nnc3c(=O)[nH]c(C4CCCN(S(=O)(=O)c5ccccc5)C4)nc32)cc1` (stereo unspecified), the “activity change, negative = inhibition” value was inactive: 20.5% [at 46.1 µM].
In the case of `COc1ccccc1C(c1nnnn1C1CCCC1)N1CCN2CCCC2C1` (stereo unspecified), the Potency is reported as inconclusive: 4.61 µM [inhibitor, single point].
With `COC(=O)C1=C(C)N(Cc2ccccc2)C(=NCCc2c[nH]c3ccccc23)NC1c1cccc(F)c1` (stereo unspecified) the Potency was inconclusive: 0.006 µM [inhibitor, full curve, poor fit].
For `CN1/C(=C/c2cc[n+](C)c3ccccc23)C=Cc2ccccc21`, the Potency was inconclusive: 8.91 µM [inhibitor, partial curve, poor fit].
In the case of `O=C(CSc1nnc(NC(=O)c2ccccc2F)s1)NCc1ccco1`, the Potency is reported as inconclusive: 11.2 µM [inhibitor, partial curve].
In the case of `C(=N\N1CCN(c2ccccn2)CC1)/c1ccccn1`, the “activity change, negative = inhibition” value is reported as inactive: -2.65%.
In the case of `CNc1ncc(C(=O)c2ccc(Br)cc2)s1`, the Potency is reported as inconclusive: 3.98 µM [inhibitor, full curve, poor fit].
For `COc1ccccc1N1CCN(C(=O)c2sc3nc(C)nc(N4CCN(c5ccccn5)CC4)c3c2C)CC1`, the Potency was inconclusive: 35.5 µM [inhibitor, single point].
In the case of `COC(=O)CC1C(=O)NCCN1C(=O)c1ccc(S(=O)(=O)N2CCOCC2)cc1` (stereo unspecified), the Potency is reported as inconclusive: 35.5 µM [activator, single point].
For `CCOc1ccccc1NC(=O)c1cc(C(=O)c2cc(OC)ccc2O)coc1=N`, the “activity change, negative = inhibition” value was inactive: -17%.
For `COc1ccc2c(c1)CO[C@H]([C@H](O)CO)[C@H]2C=Cc1ccccc1`, the Potency was inconclusive: 0.133 µM [inhibitor, full curve, poor fit].
In the case of `COc1ccccc1Nc1ncc(C(=O)Nc2ccc(OC)c(OC)c2)c2ccccc12`, the Potency is reported as inconclusive: 6.31 µM [inhibitor, single point].
For `O=C(Oc1ccnc2cc(Cl)ccc12)N1CCCCCC1`, the Potency was inconclusive: 10 µM [inhibitor, partial curve].
For `O=S(=O)(c1ccc(SCCOc2cccc(Br)c2)nc1)N1CCCC1`, the “activity change, negative = inhibition” value was inactive: -18.6%.
In the case of `COc1ccc(-c2cc(-c3ccccc3)nc(N)n2)c(O)c1`, the Potency is reported as inconclusive: 20 µM [inhibitor, partial curve, poor fit].
For `O=C(c1ccc2c(c1)N(Cc1ccccc1)C(=O)c1ccccc1S2=O)N1CCC(Cc2ccccc2)CC1` (stereo unspecified), the Potency was inconclusive: 11.2 µM [inhibitor, partial curve, poor fit].
For `Cc1ccc(S(=O)(=O)N/N=C\c2ccc3c(c2)OCO3)cc1`, the “activity change, negative = inhibition” value was inactive: 4.32%.
With `COc1ccc(CNC(=O)c2cccc(-c3ccc(C)c4ccccc34)n2)cc1` the Potency was inconclusive: 20.6 µM [inhibitor, partial curve].
For `COC(=O)c1ccc(NC(=O)CCN2CCN(c3ccccc3)CC2)cc1`, the Potency was inconclusive: 1.41 µM [inhibitor, full curve, poor fit].
In the case of `O=C(c1cccc(NS(=O)(=O)c2ccc(F)cc2)c1)N1CCN(c2ccccc2)CC1`, the Potency is reported as inconclusive: 35.5 µM [inhibitor, single point].
With `CCn1c(C)nc2cc(-c3nc4n(n3)Cc3ccccc3-4)ccc21` the Potency was inconclusive: 0.126 µM [inhibitor, full curve, poor fit].
With `O=S(=O)(Nc1ccc(-c2ccc(N3CCCC3)nn2)cc1)c1ccc(OC(F)(F)F)cc1` the Potency was inconclusive: 2.24 µM [activator, full curve, poor fit].
In the case of `COc1cccc(C2c3c(-c4ccccc4O)n[nH]c3C(=O)N2Cc2cccnc2)c1` (stereo unspecified), the Potency is reported as inconclusive: 0.794 µM [inhibitor, full curve, poor fit].
In the case of `CCC(=O)N1c2ccc(S(=O)(=O)N3CCN(c4cc(C)ccc4C)CC3)cc2CC1C` (stereo unspecified), the Potency is reported as inconclusive: 3.55 µM [inhibitor, partial curve, poor fit].
For `CCCCCOC(=O)c1[nH]c2c(c1C)C(=O)CC(c1ccco1)C2` (stereo unspecified), the Potency was inconclusive: 0.291 µM [inhibitor, full curve, poor fit].
In the case of `COc1cc(OC)cc(C(=O)Nc2ccc(NC(=O)c3ccco3)c(Cl)c2)c1`, the Potency is reported as inconclusive: 0.794 µM [inhibitor, single point].
With `CC1=CC(=O)c2ccccc2C1=O` the “activity change, negative = inhibition” value was inactive: 4.03%.
With `Cc1ccc(C(=O)Nc2nc3c(s2)CCCC3)o1` the Potency was inconclusive: 16.4 µM [inhibitor, single point].
In the case of `CC(C)C(c1nnnn1Cc1ccc(F)cc1)N1CCN(C(=O)c2ccco2)CC1` (stereo unspecified), the “activity change, negative = inhibition” value is reported as inactive: 5.96%.
In the case of `CC(C)(C)C(=O)Nc1ccc(C(=O)N/N=C/c2ccccc2OC(=O)c2ccccc2)cc1`, the Potency is reported as inconclusive: 35.5 µM [inhibitor, single point].
In the case of `COc1ccccc1NC(=S)NCCC(c1ccccc1)c1ccccc1`, the “activity change, negative = inhibition” value is reported as inactive: -0.701%.
For `C=Cc1ccc(Cn2c(C(=O)O)c(CNCc3ccccc3)c3ccc(OC)cc32)cc1`, the “activity change, negative = inhibition” value was inactive: -11.6% [at 46.1 µM].
In the case of `Cc1ccc2cc(CN(CCN(C)C)C(=S)Nc3ccccc3)c(=O)[nH]c2c1C`, the Potency is reported as inconclusive: 22.4 µM [inhibitor, partial curve, poor fit].
For `CC1CCCN(S(=O)(=O)c2cc(C(=O)NCc3ccccc3Cl)n(C)c2)C1` (stereo unspecified), the “activity change, negative = inhibition” value was inactive: -9.74% [at 46.1 µM].
For `CC1(C)Cc2c(sc(NC(=O)C(=O)N3CCCC3)c2C(N)=O)CO1`, the Potency was inconclusive: 12.6 µM [activator, single point].
For `C/C(=N\Nc1ccc([N+](=O)[O-])cc1)c1ccc(O)cc1`, the “activity change, negative = inhibition” value was inactive: 1.29% [at 46.1 µM].
In the case of `Cc1ccc2nc(SCC(=O)Nc3ccc4c(c3)CCC4)[nH]c2c1`, the Potency is reported as inconclusive: 22.4 µM [inhibitor, single point].
For `O=C(N/N=C\c1ccccc1)c1sccc1-n1cccc1`, the “activity change, negative = inhibition” value was inactive: 11.2%.
With `CCOc1cc(C(=O)OCc2cc(=O)n3nc(C4CC4)sc3n2)cc(OCC)c1OCC` the Potency was inconclusive: 11.2 µM [inhibitor, partial curve, poor fit].
For `COc1ccc(CC(=O)Nc2ccc3nc(SC)sc3c2)cc1OC`, the “activity change, negative = inhibition” value was inactive: 2.73% [at 46.1 µM].
For `COc1ccc(C2CC(c3ccc(OC)cc3OC(C)=O)=NN2C(=O)c2ccccc2)cc1` (stereo unspecified), the Potency was inconclusive: 35.5 µM [inhibitor, single point].
With `CC(C)(C)CC(C)(C)NCC(O)COc1ccc2c(c1)CCC2` (stereo unspecified) the Potency was inconclusive: 23.1 µM [inhibitor, single point].
In the case of `CCOC(=O)c1c(C)n(OCc2ccccc2)c2ccc3c(no[n+]3[O-])c12`, the Potency is reported as inconclusive: 3.26 µM [inhibitor, partial curve, poor fit].
For `N#C/C(=C\c1ccc(OCC(N)=O)cc1)c1ccccc1`, the “activity change, negative = inhibition” value was inactive: -0.567%.
With `CCN(c1ccccc1)S(=O)(=O)c1ccc(C(=O)N(CCCN(C)C)c2nc3c(C)cccc3s2)cc1` the Potency was inconclusive: 20 µM [inhibitor, single point].
For `Cc1cc(C)c2c3c(sc2n1)C(c1cccc(F)c1)C(C#N)=C(N)O3` (stereo unspecified), the Potency was inconclusive: 18.3 µM [inhibitor, single point].
In the case of `CCOC(=O)c1sc2nc3n(c(=O)c2c1C)CCCCC3`, the “activity change, negative = inhibition” value is reported as inactive: 4.49%.
With `CCCN(CCC)S(=O)(=O)c1cc(Br)cc2c1N(C(=O)CC)CC2` the Potency was inconclusive: 4.47 µM [inhibitor, full curve].
With `Cc1ccc(CCNC(=O)c2cccc(Nc3nc4ccccc4nc3-n3nc(C)cc3C)c2)cc1` the “activity change, negative = inhibition” value was inactive: 1.08% [at 46.1 µM].
In the case of `COc1cc(Br)ccc1C1C(C(=O)Nc2ccc(C)cc2C)=C(C)Nc2nnnn21` (stereo unspecified), the Potency is reported as inconclusive: 35.5 µM [inhibitor, partial curve, poor fit].
For `O=C(CNC(=S)N(CCCN1CCOCC1)Cc1cccs1)NCCN1CCOCC1`, the Potency was inconclusive: 5.62 µM [inhibitor, single point].
